Test system: A549
Assay: Cytotoxicity against human A549 cells after 72 hrs by MTT assay
Assay type: functional, cell-based
Settings: A549, 72 h
Summary of the method: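 Cells grown in RPMI1640 with 10% FBS, penicillin and streptomycin; log-phase cells seeded per well (MCF-7 1.0 × 10^4; A549 4.5 × 10^3). After 24 h, exposed to various concentrations for 72 h.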

`COc1cccc2c1C(=O)c1c(O)c3c(c(O)c1C2=O)C[C@@](O)(C(=O)CO)C[C@@H]3O[C@H]1C[C@H](N)[C@H](O)[C@H](C)O1` [DOXORUBICIN] showed an IC50 of 837 nM.

— ChEMBL document CHEMBL1154791, “Constituents of Polyalthia longifolia var. pendula” (J Nat Prod, 2009)
